For at least one compound, name, drawing or mass did not settle the structure.
Columns and labels:
Rh41-807R cells [1] = assay: 3H-thymidine incorporation cell proliferation assay in BMS-754807-resistant Rh41-807R cells; assay type: cell-based, human
Source text: Human rhabdomyosarcoma cell line Rh41 was provided by Dr. Lee Helman and grown in RPMI medium plus GLUTAMAX® supplemented with 10% fetal bovine serum (FBS), 10 mmol/L HEPES, penicillin, and streptomycin.

Rh41-807R cells [2] = conditions: 1:1 ratio, Combination Index less than 1 indicates synergy
Source text: A dilution of ratios drug combination method was used in cellular proliferation assays to test the IC50 values of single agent (A or B) as well as in combination (a or b). […] Combination Index=(a/A+b/B).

Structure (SMILES)	sensitivity of Rh41-807R compared with Rh41 (Rh41-807R cells [1]; FIG. 4A)	activity in growth inhibition in combination with BMS-754807 (Rh41-807R cells [2])	sensitivity of Rh41-807R compared with the parental line (Rh41-807R cells [1]; cytotoxic agents and mTOR inhibitor)
CN1CCN(c2ccc3nc(-c4c(N)c5c(F)cccc5[nH]c4=O)[nH]c3c2)CC1 [Dovitinib]	more sensitive	synergistic activity	
CCN(CC)CCNC(=O)c1c(C)[nH]c(/C=C2\C(=O)Nc3ccc(F)cc32)c1C [Sunitinib]		synergistic activity	
CO[C@H]1C[C@@H]2CC[C@@H](C)[C@@](O)(O2)C(=O)C(=O)N2CCCC[C@H]2C(=O)O[C@H]([C@H](C)C[C@@H]2CC[C@@H](O)[C@H](OC)C2)CC(=O)[C@H](C)/C=C(\C)[C@@H](O)[C@@H](OC)C(=O)[C@H](C)C[C@H](C)/C=C/C=C/C=C/1C [Rapamycin]			very similar level of sensitivity as the parental line

From patent publication US20120220594A1, “METHODS FOR TREATING CANCER IN PATIENTS HAVING IGF-1R INHIBITOR RESISTANCE” (Bristol-Meyers Squibb Company, priority 2009, published 2012)
